Measurements reported in PubChem BioAssay AID686938 (Drosophila RNAi Screening Center, 2013)
The screen tested about 23,000 reagents; this is a random part of those with a known target gene and a result. In the full data, 75 (0.33%) got an active call. 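Raw plate signals without normalisation; calls rest on plate z-scores that were not deposited; ratio present for only 364 wells.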 Unmarked entries are inactive. Not stated in the record: the dose of the treatment.

- Aim: 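Knock-downs reducing store-operated calcium influx in Drosophila cells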 (primary screen)
- System: Drosophila S2R+ cells
- Reagent: long dsRNA against Drosophila genes, about 0.25 µg dsRNA per well, roughly 10,000 cells
- Time to read-out: 5 days of knock-down before the calcium assay
- Challenge: thapsigargin (SERCA pump blocker) to empty calcium stores; entry signal taken 4 min after adding it
- Measured: 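Per-well fluo-4 fluorescence in two replicates, unnormalised, measured in resting cells and 4 min after store depletion by the SERCA blocker thapsigargin; ratio of the two present in few wells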
- Reading the numbers: calcium entry signal: higher = stronger calcium signal after store depletion; resting calcium signal: higher = higher resting calcium signal
- Units: calcium entry signal in fluorescence units; resting calcium signal in fluorescence units
- Call rule: 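Called when the plate z-score of the entry-to-rest ratio, mean of duplicates, falls below −3; wells with low overall dye signal (Fmax z below −2) or more than five off-targets excluded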
- Calls: active = strongly reduced calcium entry; inactive = no strong reduction

{"gene knocked down": "Prestin", "amplicon": "DRSC10507", "calcium entry signal, replicate 1": 4.14e7, "calcium entry signal, replicate 2": 8.06e7, "resting calcium signal, replicate 1": 2.18e7, "resting calcium signal, replicate 2": 3.41e7}
{"gene knocked down": "S (Star)", "amplicon": "DRSC00785", "calcium entry signal, replicate 1": 4.07e7, "calcium entry signal, replicate 2": 4.01e7, "resting calcium signal, replicate 1": 1.93e7, "resting calcium signal, replicate 2": 1.94e7}
{"gene knocked down": "Duba (Deubiquitinating enzyme A)", "amplicon": "DRSC10582", "calcium entry signal, replicate 1": 4.07e7, "calcium entry signal, replicate 2": 2.52e7, "resting calcium signal, replicate 1": 2.71e7, "resting calcium signal, replicate 2": 1.11e7}
{"gene knocked down": "CG10863", "amplicon": "DRSC08145", "calcium entry signal, replicate 1": 4.91e7, "calcium entry signal, replicate 2": 3.22e7, "resting calcium signal, replicate 1": 3.25e7, "resting calcium signal, replicate 2": 1.52e7}
{"gene knocked down": "sick (sickie)", "amplicon": "DRSC02090", "calcium entry signal, replicate 1": 6.23e7, "calcium entry signal, replicate 2": 2.79e8, "resting calcium signal, replicate 1": 2.99e7, "resting calcium signal, replicate 2": 1.51e7}
{"gene knocked down": "sick (sickie)", "amplicon": "DRSC02300", "calcium entry signal, replicate 1": 3.26e7, "calcium entry signal, replicate 2": 4.41e7, "resting calcium signal, replicate 1": 1.57e7, "resting calcium signal, replicate 2": 1.68e7}
{"gene knocked down": "sick (sickie)", "amplicon": "DRSC02301", "calcium entry signal, replicate 1": 2.71e7, "calcium entry signal, replicate 2": 4.17e7, "resting calcium signal, replicate 1": 1.40e7, "resting calcium signal, replicate 2": 1.60e7}
{"gene knocked down": "sick (sickie)", "amplicon": "DRSC02302", "calcium entry signal, replicate 1": 2.43e7, "calcium entry signal, replicate 2": 4.40e7, "resting calcium signal, replicate 1": 1.25e7, "resting calcium signal, replicate 2": 1.81e7}
{"gene knocked down": "sick (sickie)", "amplicon": "DRSC02303", "calcium entry signal, replicate 1": 2.09e7, "calcium entry signal, replicate 2": 4.22e7, "resting calcium signal, replicate 1": 1.01e7, "resting calcium signal, replicate 2": 1.84e7}
{"gene knocked down": "sick (sickie)", "amplicon": "DRSC02306", "calcium entry signal, replicate 1": 2.34e7, "calcium entry signal, replicate 2": 4.11e7, "resting calcium signal, replicate 1": 1.16e7, "resting calcium signal, replicate 2": 1.67e7}
{"gene knocked down": "mthl2 (methuselah-like 2)", "amplicon": "DRSC10287", "calcium entry signal, replicate 1": 3.42e7, "calcium entry signal, replicate 2": 4.67e7, "resting calcium signal, replicate 1": 1.64e7, "resting calcium signal, replicate 2": 2.13e7}
{"gene knocked down": "CG32119", "amplicon": "DRSC09248", "calcium entry signal, replicate 1": 3.77e7, "calcium entry signal, replicate 2": 3.24e7, "resting calcium signal, replicate 1": 1.70e7, "resting calcium signal, replicate 2": 1.55e7}
{"gene knocked down": "CG32119", "amplicon": "DRSC21462", "calcium entry signal, replicate 1": 2.70e7, "calcium entry signal, replicate 2": 3.22e7, "resting calcium signal, replicate 1": 1.57e7, "resting calcium signal, replicate 2": 1.30e7}
